Here are results for 1 molecule from patent US20220378912A1 (Novartis, published 2022).

No constants are given. Whether binding was seen depends on the method and setting. Some results given as binding are weak or reduced against the parent protein; the word gives no strength.

The target of the assay is T1, P-selectin fused to immunoglobulin (Psel-Ig) (UniProt P16109 42-771, limits assumed).
T1 construct: also called spiked P-selectin; not shown: immunoglobulin part of the fusion
T1 sequence (looked up): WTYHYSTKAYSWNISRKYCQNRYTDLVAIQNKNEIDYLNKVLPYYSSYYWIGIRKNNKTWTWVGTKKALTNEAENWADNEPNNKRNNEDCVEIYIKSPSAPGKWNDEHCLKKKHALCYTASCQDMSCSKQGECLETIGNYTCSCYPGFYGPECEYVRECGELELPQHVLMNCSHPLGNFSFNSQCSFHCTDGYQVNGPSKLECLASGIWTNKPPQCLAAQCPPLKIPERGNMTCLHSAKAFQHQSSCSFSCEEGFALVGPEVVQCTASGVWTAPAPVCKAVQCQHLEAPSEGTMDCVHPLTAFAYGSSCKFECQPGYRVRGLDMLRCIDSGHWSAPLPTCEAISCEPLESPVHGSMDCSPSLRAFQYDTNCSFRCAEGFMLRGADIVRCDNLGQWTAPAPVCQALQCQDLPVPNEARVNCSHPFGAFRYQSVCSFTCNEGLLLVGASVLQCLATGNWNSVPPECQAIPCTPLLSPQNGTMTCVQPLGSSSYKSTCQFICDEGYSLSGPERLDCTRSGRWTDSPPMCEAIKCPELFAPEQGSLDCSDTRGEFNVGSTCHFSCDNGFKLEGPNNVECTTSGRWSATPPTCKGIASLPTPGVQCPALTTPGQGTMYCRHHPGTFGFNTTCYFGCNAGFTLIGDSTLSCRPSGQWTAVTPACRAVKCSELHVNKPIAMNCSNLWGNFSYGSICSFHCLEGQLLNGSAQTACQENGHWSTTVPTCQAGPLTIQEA
Kind of assay: SPR competition, ex vivo patient serum with spiked Psel-Ig.

B1: SEG101 (crizanlizumab), humanised monoclonal antibody against human P-selectin (antibody, human IgG2, kappa, V domains shown)
VH: QVQLVQSGAEVKKPGASVKVSCKVSGYTFTSYDINWVRQAPGKGLEWMGWIYPGDGSIKYNEKFKGRVTMTVDKSTDTAYMELSSLRSEDTAVYYCARRGEYGNYEGAMDYWGQGTLVTVSS
VL: DIQMTQSPSSLSASVGDRVTITCKASQSVDYDGHSYMNWYQQKPGKAPKLLIYAASNLESGVPSRFSGSGSGTDFTLTISSLQPEDFATYYCQQSDENPLTFGGGTKVEIKR
notes: also called SelG1; main peak
As for B1, the binding result is “binds”.
